# Data from PubChem BioAssay AID1347423 (Functional Genomics Laboratory (NCATS/FGL), 2020).
# Out of some 52,000 sequences screened, about 210 (0.4%) were called active.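 The calls were made as follows: active = gene whose silencing raises cell survival under the drug, median off-target-corrected z-score across its silencing RNAs 2 or more; inactive = the rest.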 The list shows a part of the results.
# Test: Resistance to Poly (ADP-Ribose) Polymerase inhibitor: Gene Identification via Genome-wide siRNA Screen
# Conditions: mouse BRCA2 R2336H ES cells, olaparib, CellTiter-Glo viability; stronger effect = higher value
# How it was run: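 Genome-wide siRNA screen (3 siRNAs/gene, 20 nM) in mouse ES cells carrying hypomorphic BRCA2 R2336H; olaparib 500 nM added 48 h post-transfection, CellTiter-Glo viability 72 h later. Normalized to plate-median negative control; MAD z-scores, gene median, seed-adjusted.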
row,Sequence,z-score
1,CCGUACUUAUGUUAGCUGATT against Csnk1a1,inactive: -1.21
2,GGAAACCUUUACCAUAAACTT against AU040950,inactive: -0.371
3,GGUUUCCAGUUAUCUUAAUTT against 4921508O11Rik,inactive: -1.25
4,GCUCAUGCAACUCUGCGUUTT against Dpyd,inactive: 1.23
5,GGCAAUAGGCAAUGGAAAATT against V2r15,inactive: 1.2
6,GGAGGAAGACACUCCCUCUTT against Atf4,inactive: 2.42
7,GGACUUCGACAAACUGAAGTT against C530030I18Rik,inactive: -2.35
8,GCGAAUGCUGGAGAAACUUTT against Aif1,inactive: -1.05
9,GCCCACUCACACCUAUUCUTT against Olfr1388,inactive: -0.695
10,GCUGCUUACACAGGAUGUATT against Abcd3,inactive: 0.521
11,GCUACAACCCUGUCUGACATT against P4hb,inactive: -1.54
12,GCUUACCUCUAGAUACACUTT against Snrpd1,inactive: -2.31
13,GGCGGAAGUCCUUAUCAAATT against 2310008H09Rik,inactive: -0.182
14,GGCAUAUACAUCAACAUGATT against 1700067C01Rik,inactive: 0.653
15,GGUGCUGGCAACCUUUUGUTT against Masp1,inactive: -0.89
16,GGGACGUGAACAGCUAAAGTT against AI413782,inactive: 2.65
17,GGUGAAUGUAUAAGUUAUGTT against Icam1,inactive: 0.291
18,GGCCGGAGAAAAACUUUUGTT against Olfr1406,inactive: 1.23
19,GGGUGAAAAGCAUUUCUGUTT against MGI:1923902,inactive: 1.38
20,CCUUUGUGAUGGAUGUUUATT against Dexi,inactive: -0.0408
21,GGCUCAUGUGGUAUAGAAATT against Il1rapl2,inactive: -0.698
22,GGUAGAAAAGAAAAAGACCTT against Stc1,inactive: -0.161
23,CCUAUCAAGGCCAAUUCACTT against Jph2,inactive: 0.629
24,GGAUCUUGGAGAGAUUCAUTT against Muted,inactive: 1.08
25,GGACUCCUCAUGCUGAAGATT against Cdh13,inactive: 0.502
26,GCCCUACAAAAAAGUUAUUTT against Bnip2,inactive: 0.461

row,Sequence,z-score
1,GGAAUAAUCAAGCUAGGGATT against Satb2,inactive: 0.181
2,GGUGGAAUUUCAGCUCUACTT against 4930572I07Rik,inactive: -0.647
3,GCAUGUCCGUUUAUGUCACTT against Trp53inp2,inactive: 0.265
4,GCUAUGGUAGCUGAUAACATT against AA536743,inactive: -0.615
5,GGAUCUGCUCUCUUAGAAGTT against Gzmn,inactive: -1.5
6,GGUACACUACAUGACUCAUTT against Sall4,inactive: 0.95
7,CGGUGCAGAUGUCGACGAUTT against Sssca1,inactive: 0.479
8,GGCAGGAUCCUUUUCUCUATT against Als2,inactive: -1.15
9,GGAACCUAUGGAAGGCGUATT against Hmga1l4,inactive: 1.05
10,GGAGAUGGCAAUUCCGGUUTT against Pycs,inactive: -1.93
11,CCUGGAGGAGUAUUUACACTT against H2-Ob,inactive: -0.77
12,GCCCGAUGUCAUGUGGACATT against Eya2,inactive: -0.588
13,GGUGGUCCUGGAUCUUUAUTT against Spon2,inactive: -1.87
14,CCUUUACGUUUCUGUGUCUTT against Slc37a4,inactive: -0.238
15,GGAGUUUACAUGAGUACUATT against Slco1a6,inactive: -0.504
16,GGCCCAAGAGAACAUCAAATT against Speer2,inactive: 0.716
17,GGAAAAAAUCACUUUCAUCTT against Sfrs16,inactive: -0.125
18,GCUUCCAAUUACUUAUCCATT against Phc3,inactive: 0.881
19,GGCCAUUUGUCACAUAUGUTT against Tyk2,inactive: 0.405
20,GCUUCGUGGGUGAAGGAUATT against Ofcc1,inactive: -1.8
21,GGUAACUGGUGUCAUUUAATT against 4933409D10Rik,inactive: 0.948
22,GGUCCCUUUAUCUUUCUUUTT against D17H6S56E-3,inactive: 0.456
23,GGGCAUCAUUAAAAGGAAATT against 0610009J22Rik,inactive: 0.341
24,CCCGCUUGUUCUGAUGAUATT against 2310039H08Rik,inactive: 0.63
25,GGACACAGACAAUGAAAUGTT against Fetub,inactive: 1.23
26,CCUUCAUGUAAUGAAGGCCTT against Rps10,inactive: -0.243

# Part of the list above, with tabs:
row	Sequence	z-score
9	GGAACCUAUGGAAGGCGUATT against Hmga1l4	inactive: 1.05
12	GCCCGAUGUCAUGUGGACATT against Eya2	inactive: -0.588

# Going on with the list.

row,Sequence,z-score
1,GGAAAUCCGAAAUGAGCUGTT against Gm1395,inactive: 0.942
2,GCUCUGAGUGAGUCAAAAGTT against 0610016J10Rik,inactive: 0.847
3,GGUGUUCCACCCAACUCAATT against 1810057E01Rik,inactive: 1.2
4,GGACAUGGCUCUAAAAUUUTT against 1110007C24Rik,inactive: 1.33
5,GUUAAAAAGUGGAAUGCAGTT against Rbx1,inactive: 0.681
6,GGAAACCGAAUUCCAAGGGTT against Ddx25,inactive: -0.217
7,GCAAGAAAACCUUAGCUCATT against Trpm2,inactive: -0.762
8,GGUAGUAGGAGUUUCCUACTT against 4933414I15Rik,inactive: 1.79
9,GGGUCUGAUUUUUUAAGGATT against Arpp19,inactive: -0.486
10,CCAUUUAUUCCCUCAACAUTT against Shoc2,inactive: 0.772
11,GCACUUACAUUGACGAACUTT against Olfr985,inactive: -1.8
12,GGAAGUUACUGUGAGAUAATT against Mtbp,inactive: -2.9
13,GGCUCGUCAAAUCAAGUAUTT against Hist1h2be,inactive: -1.15
14,GGUUUUGCAUAAGAUCAUUTT against Nnp1,inactive: -2.69
15,GGUGGAGUUUAAACUUACATT against Atp4b,inactive: 1.33
16,CCUACUUUAGUUCACUUUGTT against Tsnax,inactive: -0.0579
17,CGUCCUGUCGGUAACAUUATT against Mllt2h,inactive: 1.77
18,CGUGCUGUUUAAAAGCCGUTT against Mkrn3,inactive: 1.38
19,GGCUCUCAUCCAUCUCCUUTT against Olfr715,inactive: -2.25
20,CGCUAAGCUUAUUGAGUCUTT against BC003251,inactive: 0.488
21,GCAGGGAGACUCACAUUAATT against Anktm1,inactive: -1.29
22,GGCCAAGAUCAUGAUCACCTT against Cldn4,inactive: 0.413
23,CCUUUGGACUGUACCACCUTT against 1200003I07Rik,inactive: -1.02
24,GAGACAAGGGUCGUCUAAUTT against Dusp13,inactive: -1.22
25,GGUCAUUCAAGAGAUACUATT against 1810055E12Rik,inactive: -1.02
26,GGGAAGCAACAUGAUUAAATT against Myst2,inactive: 1.25

row,Sequence,z-score
1,GGAACUUCUGGUAAGUUUGTT against 5930412E23Rik,inactive: -1.7
2,GCGGCUUAUGUCUCAAAUUTT against Gcdh,inactive: -0.52
3,GGAGCGAAGUGAUGAAUAATT against Rds,inactive: 0.434
4,GGUAUACAAAUCAAAUGUCTT against Nufip1,inactive: -0.724
5,CCGUAUCAACCUCAUCUAUTT against Mobkl2c,inactive: 0.723
6,GGGAGUUAUAUUAGUCUAUTT against Rab18,inactive: -2.64
7,CCAUCAACCCAUCAUGUGCTT against Pitpnc1,inactive: 0.101
8,GCCGGAUACCAACAUUCAATT against 5330431N24Rik,inactive: -0.901
9,CCUUCCAUCCGAUUUGAAGTT against Ell,inactive: 0.0059
10,CCUAUCAGUCUAUCAUGUATT against Kdr,inactive: 0.301
11,GGUUCCUCUGUAAAAAGAUTT against Defb13,inactive: -0.636
12,GGGCCACAUGUGUUCACUATT against Scotin,inactive: -1.89
13,GGUUGUAGACUUUAUUCAATT against Ppm1g,inactive: 0.178
14,GGUCUAUGACAAGAAUUUUTT against Rdh7,inactive: -0.0367
15,GGAAGAGUUGGAGAAAAUUTT against 4930549C01Rik,inactive: 1.51
16,GCUUGUUUUCCUUAAGGGATT against Crry,inactive: -0.169
17,GGUAACCUGUACAAUUGACTT against Serpinb1c,inactive: -0.252
18,GGAAAGCAUCAUUGAAAACTT against Dkk1,inactive: 1.38
19,GGAAUGCUAUUCUCGGACUTT against Lrg1,inactive: -0.758
20,GCUACAAUAAUGGUCAGUCTT against Zfp36l3,inactive: 0.793
21,GGACUUUAGCAAAAUCGGCTT against LOC433481,inactive: 0.86
22,UGUAUCUGCUUACAGUAGCTT against Olfr523,inactive: 0.317
23,GGAUCCUCAACAAAGAAGATT against H2-DMb1,inactive: -0.43
24,GGAUCAUUCCAUUUCUGCCTT against G431001E03Rik,inactive: -0.212
25,CCAGUAUUUGAGAAUUCUGTT against LOC214403,inactive: 0.1
26,GGAUAUCGAUUUAAGAGACTT against Adam2,inactive: 1

# 4 entries from above, tab-delimited.
row	Sequence	z-score
18	CGUGCUGUUUAAAAGCCGUTT against Mkrn3	inactive: 1.38
19	GGCUCUCAUCCAUCUCCUUTT against Olfr715	inactive: -2.25
20	CGCUAAGCUUAUUGAGUCUTT against BC003251	inactive: 0.488
21	GCAGGGAGACUCACAUUAATT against Anktm1	inactive: -1.29
